# Assay results reported in PubChem BioAssay AID2685 (National Center for Advancing Translational Sciences (NCATS), 2010).
# Some of the results follow. The main result of the screen is listed elsewhere. These columns were measured beside it and carry no call. The list favours compounds with an active or inconclusive main result. Words in brackets tell the shape of the fitted curve; partial curves, single points and poor fits give uncertain potencies.
# Assay: qHTS Assay for Lipid Storage Modulators in Drosophila S3 Cells;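 on cell number change: cells counted by Cell Tracker Red CMTPX staining in the red channel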
# Conditions: BODIPY lipid droplet fluorescence, 18-24 h; for cell number change: measured here: cell count max response, cells fed with added oleic acid
# Procedure, shortened: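 Drosophila S3 cells got compounds at several concentrations plus oleic acid (400 uM solution). Laser-scanning cytometry with 488 nm excitation read lipid droplets at 500-530 nm and cells at 575-640 nm. Percent activity was relative to 20 uM Triacsin C.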
# [1] = measured here: lipid fluorescence (Fed channel) AC50, cells fed with added oleic acid
# [2] = measured here: cell number channel AC50, cells fed with added oleic acid
smiles,measurement,setting,value
COc1cc(S(C)=O)ccc1-c1nc2ncccc2[nH]1 (stereo unspecified),cell number change,,2.83%
same,AC50,[1],"2.06 µM [rising, single point]"
COc1ccc(-c2nnc(SCC(=O)Nc3cccc(Cl)c3)o2)cc1,cell number change,,-31.7%
same,AC50,[2],"18.4 µM [falling, single point]"
N#CCCn1ccc(NC(=O)c2ccc(Cl)cc2)n1,cell number change,,50.6%
same,AC50,[2],"2.06 µM [rising, full curve]"
COc1c2ccoc2c(OC)c2oc(=O)ccc12,cell number change,,-3.7%
same,AC50,[1],"0.0366 µM [rising, full curve, poor fit]"
COc1ccc(Nc2ncnc3sccc23)cc1,cell number change,,-7.94%
same,AC50,[2],"0.231 µM [falling, full curve, poor fit]"
same,AC50,[1],"0.58 µM [falling, single point]"
CC(=O)Nc1ccc(S(=O)(=O)N2CCSC2)cc1,cell number change,,13%
same,AC50,[1],"6.51 µM [rising, single point]"
COc1ccccc1C(=O)NCCC(=O)Nc1ccc(S(=O)(=O)Nc2ncccn2)cc1,cell number change,,-38.8%
same,AC50,[2],"29.1 µM [falling, single point]"
same,AC50,[1],"0.461 µM [falling, partial curve, poor fit]"
Cc1cccc(-n2c(-c3ccco3)nc3nc4ccccc4nc32)c1,cell number change,,7.17%
same,AC50,[1],"3.26 µM [rising, single point]"
CCOC(=O)C(NC(=O)CC(C)C)(Nc1cc(C)on1)C(F)(F)F (stereo unspecified),cell number change,,-19.5%
same,AC50,[1],"23.1 µM [falling, partial curve]"
COc1ccc(-c2nncnn2)cc1,cell number change,,-17.5%
same,AC50,[1],"29.1 µM [falling, single point]"
CCOC(=O)NC(NC(=S)Nc1ccccc1OC)C(Cl)(Cl)Cl (stereo unspecified),cell number change,,-30.8%
same,AC50,[2],"29.1 µM [falling, single point]"
same,AC50,[1],"0.0231 µM [falling, full curve, poor fit]"
CCOc1cc2[nH]c(=S)n(CCCC(=O)NCc3ccco3)c(=O)c2cc1OCC,cell number change,,-18.1%
same,AC50,[1],"29.1 µM [falling, single point]"
CC(C)(C)NC(=O)Cn1cnc2cc([N+](=O)[O-])ccc2c1=O,cell number change,,19.4%
C[C@@H]([C@H](O)c1ccccc1)N(C)C(=S)Nc1ccccc1,cell number change,,-29.1%
same,AC50,[1],"29.1 µM [falling, single point]"
CCCCOc1ccc(-c2nnn(CC(=O)NCc3ccco3)n2)cc1,cell number change,,8.35%
same,AC50,[1],"3.66 µM [rising, single point]"
COc1ccc(C2=[N+]([O-])C(C)(C)N(O)C2(C)C)cc1,cell number change,,-24.5%
same,AC50,[1],"0.146 µM [falling, full curve, poor fit]"
COc1ccccc1CN1C(=O)c2ccccc2C1C(=O)NC1CCC(C)CC1 (stereo unspecified),cell number change,,-10.4%
same,AC50,[1],"0.731 µM [rising, single point]"
COc1cccc(NC(=O)CN(C)C(=O)c2cc(C3CC3)nn2-c2ccccc2)c1,cell number change,,35.5%
same,AC50,[2],"23.1 µM [rising, single point]"
same,AC50,[1],"20.6 µM [rising, partial curve, poor fit]"
CC1(C)CNC(=O)c2sc(NC(=O)c3ccccc3)nc2C1,cell number change,,12.6%
same,AC50,[1],"13 µM [rising, partial curve]"
Cc1onc(-c2ccccc2)c1NC(=O)N(Cc1ccccc1)C(C)C,cell number change,,-54%
same,AC50,[2],"1.3 µM [falling, full curve]"
same,AC50,[1],"1.64 µM [falling, full curve]"
NN/C(=C\[N+](=O)[O-])Nc1ccccc1,cell number change,,36.4%
same,AC50,[2],"29.1 µM [rising, single point]"
same,AC50,[1],"6.51 µM [falling, single point]"
COc1ccc(CS(=O)(=O)CC(C)(O)c2ccccc2)cc1 (stereo unspecified),cell number change,,-0.901%
same,AC50,[2],"0.731 µM [rising, single point]"
same,AC50,[1],"0.58 µM [rising, single point]"
COc1ccc(F)cc1S(=O)(=O)N1CCN(c2ccccn2)CC1,AC50,[1],"8.2 µM [rising, partial curve]"
CCN1CC(CN(C)Cc2nc(-c3ccco3)oc2C)CC1=O (stereo unspecified),cell number change,,9.84%
same,AC50,[1],"0.92 µM [rising, full curve, poor fit]"
Cc1nc(-c2ccccc2)cn(O)c1=O,AC50,[2],"1.84 µM [falling, partial curve]"
O=C(NCCc1ccccc1)C1CCCN1C(=O)Nc1cccc(Cl)c1 (stereo unspecified),cell number change,,-6.61%
CC(C)N(C(=O)Cn1c(Cl)nc2ccccc21)C(C)C,cell number change,,-67.5%
same,AC50,[2],"2.59 µM [falling, full curve]"
same,AC50,[1],"13 µM [falling, partial curve, poor fit]"
CCOC(=O)c1ccccc1NC(=O)COC(=O)CCC1CCCC1,cell number change,,-8.12%
same,AC50,[1],"8.2 µM [rising, partial curve, poor fit]"
COc1cccc(C=N[C@@H](CO)[C@@H](O)c2ccc([N+](=O)[O-])cc2)c1O,cell number change,,-15%
CCOc1c(C)cnc2c1c(=O)n(Cc1c(F)cccc1Cl)c(=O)n2C,cell number change,,26.9%
same,AC50,[1],"29.1 µM [rising, partial curve]"
CCOc1ccc(NC(=O)CN(C)S(=O)(=O)c2cnc[nH]2)cc1,cell number change,,-5.97%
same,AC50,[2],"1.3 µM [rising, full curve, poor fit]"
Cc1ccccc1OCCC(=O)Nc1ccc(S(=O)(=O)N(C)C2CCN(C)CC2)cc1,cell number change,,-21.4%
same,AC50,[1],"29.1 µM [falling, single point]"
CC(Sc1nnc2c(n1)[nH]c1ccccc12)C(=O)NC1CCCCC1 (stereo unspecified),cell number change,,26.9%
same,AC50,[1],"6.51 µM [rising, partial curve]"
Cn1c(=O)n(CCc2ccccc2)c2ccccc21,cell number change,,17%
Cc1nc2ccccc2c(C)c1C(=O)c1ccccc1,cell number change,,26.7%
same,AC50,[1],"0.00517 µM [falling, full curve, poor fit]"
Cc1cc(C)nc(SCc2nnc(SCC(=O)NCc3ccco3)n2-c2ccccc2)n1,cell number change,,0.74%
same,AC50,[1],"7.31 µM [rising, partial curve]"
CCNC(=O)c1c(C)nc2ccccn12,cell number change,,-52.6%
same,AC50,[2],"0.651 µM [falling, partial curve, poor fit]"
CN1CCN(c2nc(-c3cccnc3)nc3ccccc23)CC1,cell number change,,-16.8%
same,AC50,[1],"6.51 µM [rising, single point]"
COc1cc(/C=N/NC(=O)c2cc(O)cc(O)c2)ccc1OC(=O)c1ccccc1,cell number change,,-39.1%
same,AC50,[2],"29.1 µM [falling, single point]"
O=C(COc1ccccc1[N+](=O)[O-])N/N=C/c1ccc(O)c([N+](=O)[O-])c1,cell number change,,-10.6%
same,AC50,[2],"0.00461 µM [falling, full curve, poor fit]"
same,AC50,[1],"0.00461 µM [falling, full curve, poor fit]"
O=C1/C(=C/c2ccco2)SC(=S)N1C1CCS(=O)(=O)C1 (stereo unspecified),AC50,[2],"6.51 µM [rising, single point]"
same,AC50,[1],"6.51 µM [rising, partial curve, poor fit]"
Cc1cccc(-c2nn(-c3ccccc3)cc2C(=O)NCC(c2cccs2)N2CCOCC2)c1 (stereo unspecified),cell number change,,49.2%
same,AC50,[2],"2.31 µM [rising, full curve]"
CCOC(=O)[C@H]1[C@H]2COc3ccc(Cl)cc3[C@@H]2N2C(=O)c3cc(OC)ccc3NC(=O)[C@@]12C,cell number change,,-35.1%
same,AC50,[2],"10.3 µM [falling, partial curve]"
same,AC50,[1],"6.51 µM [falling, single point]"
Cn1c(=O)c(C(=O)NNC(=O)c2cccc(Cl)c2)c(O)c2ccccc21,cell number change,,35.2%
same,AC50,[2],"18.4 µM [rising, partial curve, poor fit]"
Cc1nn2cc(-c3ccc(Cl)cc3)cnc2c1Cl,cell number change,,-6.13%
same,AC50,[2],"1.46 µM [rising, partial curve]"
same,AC50,[1],"2.06 µM [rising, partial curve]"
CC(C)(C)c1nc2ccccc2[nH]1,cell number change,,-61%
same,AC50,[2],"20.6 µM [falling, single point]"
Cn1c(=O)cc(OCC(=O)Nc2ccccn2)c2ccccc21,AC50,[2],"6.51 µM [rising, single point]"
same,AC50,[1],"1.84 µM [rising, partial curve]"
CSc1nc2c(c(=O)[nH]c(=O)n2C)n1Cc1ccccc1Cl,cell number change,,-21%
O=C(NCCCn1ccnc1)c1c(F)cccc1F,cell number change,,15.1%
O/N=C/c1ccc(OCc2ccccc2)c(Cl)c1,cell number change,,-37.4%
same,AC50,[2],"32.6 µM [falling, single point]"
same,AC50,[1],"32.6 µM [falling, single point]"
C[C@]12CC[C@@H]3c4ccc(O)cc4CC[C@H]3[C@@H]1CC[C@@H]2OC(=O)CCC(=O)O,cell number change,,22.7%
same,AC50,[1],"29.1 µM [falling, single point]"
COc1ccc(NC(=O)CN(C)C(C)C(=O)N2CCCCC2)cc1 (stereo unspecified),cell number change,,4.86%
CCOC(=O)C(/C(C)=N/NC(=O)C1CC1c1ccccc1)C(C)C (stereo unspecified),cell number change,,7.31%
same,AC50,[1],"18.4 µM [rising, single point]"
Cc1csc(=O)n1CCC(=O)OCC(=O)Nc1ncc(Cl)cc1Cl,cell number change,,15.5%
same,AC50,[1],"0.651 µM [falling, full curve, poor fit]"
O=C(Nc1ccc(F)cc1)c1ccc(CSc2ccccc2)o1,cell number change,,21.7%
same,AC50,[1],"25.9 µM [rising, single point]"
C=CCNS(=O)(=O)c1ccc(OCC(=O)OC)cc1,cell number change,,-13.5%
same,AC50,[1],"0.164 µM [falling, full curve, poor fit]"
N#Cc1cc2cc3c(cc2nc1SCC(=O)N1CCOCC1)OCCO3,cell number change,,-5.13%
Cc1nc2ccccn2c1/C(O)=C1\C(=O)C(=O)N(CCN(C)C)C1c1ccco1 (stereo unspecified),AC50,[1],"0.116 µM [falling, full curve, poor fit]"
CCc1ccccc1NC(=O)CCCN1C(=O)C2CC=CCC2C1=O (stereo unspecified),cell number change,,6.14%
Cc1[nH]c2ccccc2c1C(=O)NS(=O)(=O)Nc1ccc(Cl)cc1,cell number change,,-43.6%
same,AC50,[2],"3.26 µM [falling, partial curve, poor fit]"
same,AC50,[1],"1.16 µM [falling, full curve]"

# 7 entries from above in another layout:
smiles | measurement | setting | value
COc1c2ccoc2c(OC)c2oc(=O)ccc12 | cell number change |  | -3.7%
C[C@@H]([C@H](O)c1ccccc1)N(C)C(=S)Nc1ccccc1 | cell number change |  | -29.1%
NN/C(=C\[N+](=O)[O-])Nc1ccccc1 | AC50 | [2] | 29.1 µM [rising, single point]
COc1ccc(CS(=O)(=O)CC(C)(O)c2ccccc2)cc1 (stereo unspecified) | cell number change |  | -0.901%
CC(C)N(C(=O)Cn1c(Cl)nc2ccccc21)C(C)C | AC50 | [2] | 2.59 µM [falling, full curve]
CCOC(=O)[C@H]1[C@H]2COc3ccc(Cl)cc3[C@@H]2N2C(=O)c3cc(OC)ccc3NC(=O)[C@@]12C | cell number change |  | -35.1%
Cn1c(=O)c(C(=O)NNC(=O)c2cccc(Cl)c2)c(O)c2ccccc21 | AC50 | [2] | 18.4 µM [rising, partial curve, poor fit]
